Results from US20110319274A1 (Carlsberg A/S, priority 2004, published 2011).

What was measured:
[1] = general procedure: Fmoc solid-phase peptide synthesis; PEGA resin with Fmoc-Rink amide linker; TBTU/NEM; details: whole synthesis, scale 0.056 mmol
[2] = general procedure: Fmoc solid-phase peptide synthesis; HMBA-Gly-PEGA; TBTU/NEM; details: whole synthesis; for crude yield: scale of the general procedure 0.056 mmol

Ac-His-(D)phe-Arg-Trp-NH2
crude mass [1]: 36.93 mg | crude yield [1]: 96%

Lys-Dap(N3)-His-(D)Phe-Arg-Trp-Pra-Met cyclic
crude yield ([2]; run 1): 82.5% | crude yield ([2]; run 2): 79% | crude mass ([2]; run 1): 8.1 mg | crude mass ([2]; run 2): 7.8 mg
